Measurements: publication PMC12847741
Results are given in words; binding and its absence hold for the method and conditions named. Binding seen in cells or lysates may run through a third protein. Here binding means that the protein was enriched with, or labelled near, the bait; the list need not be complete. Sequences can lack the tags named with a protein.

The chains behind the UniProt entries cited, without tags or fusion partners.
UniProt Q14247: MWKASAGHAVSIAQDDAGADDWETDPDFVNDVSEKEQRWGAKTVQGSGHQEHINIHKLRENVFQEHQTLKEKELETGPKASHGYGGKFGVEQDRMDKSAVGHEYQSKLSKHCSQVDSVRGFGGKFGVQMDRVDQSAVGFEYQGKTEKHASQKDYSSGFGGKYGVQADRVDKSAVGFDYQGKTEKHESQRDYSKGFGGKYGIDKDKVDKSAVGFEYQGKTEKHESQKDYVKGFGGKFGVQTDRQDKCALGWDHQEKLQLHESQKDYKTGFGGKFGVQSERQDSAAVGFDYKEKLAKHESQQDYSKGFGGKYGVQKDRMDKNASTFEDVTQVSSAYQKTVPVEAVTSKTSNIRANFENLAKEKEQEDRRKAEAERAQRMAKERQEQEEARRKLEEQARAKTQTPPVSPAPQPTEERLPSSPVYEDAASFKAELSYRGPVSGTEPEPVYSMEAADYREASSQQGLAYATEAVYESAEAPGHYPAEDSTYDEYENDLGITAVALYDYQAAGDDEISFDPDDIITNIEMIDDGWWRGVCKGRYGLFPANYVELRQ
UniProt P04792: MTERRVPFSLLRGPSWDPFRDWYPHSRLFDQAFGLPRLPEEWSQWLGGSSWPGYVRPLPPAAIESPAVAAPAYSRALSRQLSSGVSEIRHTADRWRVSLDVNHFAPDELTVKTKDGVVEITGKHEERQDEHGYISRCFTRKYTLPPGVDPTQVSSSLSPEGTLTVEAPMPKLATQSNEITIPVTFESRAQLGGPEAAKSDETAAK

T1: Flag-tagged IFIT3 (interferon-induced protein with tetratricopeptide repeats 3), full-length (human) (UniProt O14879)
T1 sequence: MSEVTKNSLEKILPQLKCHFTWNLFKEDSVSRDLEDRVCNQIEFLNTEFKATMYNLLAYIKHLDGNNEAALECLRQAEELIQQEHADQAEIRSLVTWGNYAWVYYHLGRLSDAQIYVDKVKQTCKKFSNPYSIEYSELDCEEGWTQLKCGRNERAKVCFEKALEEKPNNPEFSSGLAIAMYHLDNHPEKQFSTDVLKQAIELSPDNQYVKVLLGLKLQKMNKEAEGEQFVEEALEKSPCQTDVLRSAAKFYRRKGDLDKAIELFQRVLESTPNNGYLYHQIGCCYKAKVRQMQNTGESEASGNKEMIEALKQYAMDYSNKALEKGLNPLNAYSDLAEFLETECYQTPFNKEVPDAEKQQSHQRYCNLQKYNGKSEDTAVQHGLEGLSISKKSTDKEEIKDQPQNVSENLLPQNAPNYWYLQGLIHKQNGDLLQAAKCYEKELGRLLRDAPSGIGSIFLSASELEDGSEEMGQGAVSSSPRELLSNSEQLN


Target: T1, Flag-tagged IFIT3 (interferon-induced protein with tetratricopeptide repeats 3), full-length (human)
Test: affinity purification with mass spectrometry; cells lysed in IP lysis buffer 48 h after plasmid transfection; protein A/G magnetic beads with primary antibody or control IgG (4 °C, 2 h), then protein extract for 2 h; PBST washes; SDS-PAGE (silver stain) and MS; cell line not stated

Row | binding | Molecule
1 | binds | CTTN (from UniProt Q14247 1-550)
2 | binds | HSPB1 (from UniProt P04792 1-205)
3 | binds | ANXA1 (protein, UniProt P04083 1-346) MAMVSEFLKQAWFIENEEQEYVQTVKSSKGGPGSAVSPYPTFNPSSDVAALHKAIMVKGVDEATIIDILTKRNNAQRQQIKAAYLQETGKPLDETLKKALTGHLEEVVLALLKTPAQFDADELRAAMKGLGTDEDTLIEILASRTNKEIRDINRVYREELKRDLAKDITSDTSGDFRNALLSLAKGDRSEDFGVNEDLADSDARALYEAGERRKGTDVNVFNTILTTRSYPQLRRVFQKYTKYSKHDMNKVLDLELKGDIEKCLTAIVKCATSKPAFFAEKLHQAMKGVGTRHKALIRIMVSRSEIDMNDIKAFYQKMYGISLCQAILDETKGDYEKILVALCGGN
4 | binds | LIM and SH3 protein 1 (LASP1), endogenous (protein, UniProt Q14847 1-261) MNPNCARCGKIVYPTEKVNCLDKFWHKACFHCETCKMTLNMKNYKGYEKKPYCNAHYPKQSFTMVADTPENLRLKQQSELQSQVRYKEEFEKNKGKGFSVVADTPELQRIKKTQDQISNIKYHEEFEKSRMGPSGGEGMEPERRDSQDGSSYRRPLEQQQPHHIPTSAPVYQQPQQQPVAQSYGGYKEPAAPVSIQRSAPGGGGKRYRAVYDYSAADEDEVSFQDGDTIVNVQQIDDGWMYGTVERTGDTGMLPANYVEAI
